Taken from: PubChem BioAssay AID1508597 (Cure First, 2020)

Screen: 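Genes whose silencing sensitises or protects ovarian cancer cells against rucaparib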 (primary screen)
Cell system: human ovarian carcinoma lines grown from tumours: OCI-P5x (papillary serous) and OCI-C5x (clear cell)
Knock-down reagent: siRNA pool against human genes, 1.25 pmol siRNA per well
Timing: 72 h or 96 h, depending on the cell culture
Treatment: rucaparib 20 µM (about IC30) or vehicle, present until read-out
Rucaparib or vehicle: Rucaparib
Cell line: OCI-P5x (serous)
Detection: 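ATP luminescence measured at 72 or 96 h according to the culture, then normalised and expressed as percent viability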
Reading the numbers: viability, normalised: higher = more viable cells remaining
Call rule: 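Active when normalised viability falls below 80 percent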
Meaning of the calls: active = viability under 80%; inactive = viability 80% or more
This is a random part of the about 2,100 reagents, in one setting of the screen. 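Calls flag viability under 80% in either arm, not effects specific to rucaparib; the reference for percent is not stated.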 A number with no mark means an inactive call. A reagent listed more than once was tested more than once; the source does not tell the runs apart. Not given: the 100% reference.

target gene	technical replicate	viability, normalised (%)
ATOH1	1	81.6
ATOH1	2	93.1
ATOH1	3	87.8
ZCCHC13	1	69.4 (active)
ZCCHC13	2	54 (active)
ZCCHC13	3	70.2 (active)
PWWP3B	1	53.3 (active)
PWWP3B	2	56.4 (active)
PWWP3B	3	62 (active)
KAT7	1	49.3 (active)
KAT7	2	50.3 (active)
KAT7	3	51 (active)
PRKACG	1	143
PRKACG	2	111
PRKACG	3	114
HJURP	1	66.5 (active)
HJURP	2	74.7 (active)
HJURP	3	85.9
MAP3K3	1	88.1
MAP3K3	2	88.1
MAP3K3	3	87.9
PIWIL2	1	52.4 (active)
PIWIL2	2	58.5 (active)
PIWIL2	3	52.7 (active)
GFI1B	1	73.9 (active)
GFI1B	2	63.7 (active)
GFI1B	3	60.5 (active)
ZNF384	1	67.6 (active)
ZNF384	2	61.8 (active)
ZNF384	3	70.9 (active)
UBR5	1	83.6
UBR5	2	75.5 (active)
UBR5	3	60.9 (active)
USP3	1	32.3 (active)
USP3	2	33.7 (active)
USP3	3	33.7 (active)
CDK9	1	75.7 (active)
CDK9	2	82.8
CDK9	3	79 (active)
ING5	1	45 (active)
ING5	2	56.4 (active)
ING5	3	68.2 (active)
KCTD13	1	98.9
KCTD13	2	100
KCTD13	3	94.5
KDM6B	1	58.8 (active)
KDM6B	2	56.4 (active)
KDM6B	3	53.2 (active)
PALB2	1	149
PALB2	1	30.7 (active)
PALB2	2	140
PALB2	2	31.5 (active)
PALB2	3	36.4 (active)
PALB2	3	122
TCF7L1	1	69.1 (active)
TCF7L1	2	70.8 (active)
TCF7L1	3	57.8 (active)
MRE11	1	88.9
MRE11	2	113
MRE11	3	81.7
MAP3K4	1	90.5
MAP3K4	2	102
MAP3K4	3	96.5
POLN	1	78.8 (active)
POLN	2	68.8 (active)
POLN	3	72.9 (active)
RPS6KA2	1	88.1
RPS6KA2	2	66.2 (active)
RPS6KA2	3	110
CDK5	1	83.5
CDK5	2	77.7 (active)
CDK5	3	76.7 (active)
CHD1L	1	84.7
CHD1L	2	52.8 (active)
CHD1L	3	77.4 (active)
